Experimental data taken from PubChem BioAssay AID2685 (National Center for Advancing Translational Sciences (NCATS), 2010).
Some of the results follow. Shown are side measurements of this screen, not its main read-out; they come without a call. Compounds called inactive in the main read-out are mostly missing here. Potencies come from curve fits of mixed quality, noted in brackets.

Assay: qHTS Assay for Lipid Storage Modulators in Drosophila S3 Cells;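 as to cell number change: cells counted by Cell Tracker Red CMTPX staining in the red channel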
Conditions: BODIPY lipid droplet fluorescence, 18-24 h; for cell number change: measured here: cell count max response, cells fed with added oleic acid
How it was run: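 Drosophila S3 cells got compounds at several concentrations plus oleic acid (400 uM solution). Laser-scanning cytometry with 488 nm excitation read lipid droplets at 500-530 nm and cells at 575-640 nm. Percent activity was relative to 20 uM Triacsin C.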

[1] = measured here: lipid fluorescence (Fed channel) AC50, cells fed with added oleic acid
[2] = measured here: cell number channel AC50, cells fed with added oleic acid

CCCCC(=O)NCCNc1nc2c(c(=O)n(C)c(=O)n2C)n1Cc1ccc(F)cc1
cell number change: -26%

CSc1nc2ccsc2c(=O)n1-c1ccccc1
cell number change: 6.41%

CSCCC(N=C1NS(=O)(=O)c2ccccc21)C(=O)NCCc1ccccc1 (stereo not drawn)
cell number change: -15.9% | AC50 [1]: 16.4 µM [falling, partial curve]

N#Cc1cc2c(=O)n3ccccc3nc2n(CCN2CCOCC2)c1=O
cell number change: -0.542%

CCOC(=O)Cc1nnc(NC(=O)COc2ccc(OC)cc2)s1
cell number change: 5.06% | AC50 [1]: 0.103 µM [falling, full curve, poor fit]

O=C(NCc1cccnc1)c1cc(-c2ccccc2)on1
cell number change: -3.99% | AC50 [1]: 0.00461 µM [falling, full curve, poor fit]

Cc1ccc(Cl)cc1NC(=O)CON=C(N)c1ccccc1
AC50 [1]: 32.6 µM [rising, single point]

COc1ccc(C(=O)OC(C)C(=O)NC(C)CCc2ccccc2)c(OC)c1 (stereo not drawn)
cell number change: -12.4% | AC50 [1]: 29.1 µM [falling, single point]

Cc1ccc(OCCN2CCN(CC(O)Cn3c4ccccc4c4ccccc43)CC2)cc1 (stereo not drawn)
cell number change: -75.6% | AC50 [2]: 16.4 µM [falling, partial curve] | AC50 [1]: 18.4 µM [falling, partial curve]

COc1ccc(NC(=O)CN2C(=O)CSC(C)C2=O)cc1 (stereo not drawn)
cell number change: -19.6%

Cc1cc(C)cc(NC(=O)COC(=O)CN=C2NS(=O)(=O)c3ccccc32)c1
cell number change: -5.2% | AC50 [1]: 0.058 µM [rising, full curve, poor fit]

CC(C)C(=O)Nc1cccc(NC(=S)NC(=O)c2ccc(Cl)cc2)c1
cell number change: -39.9% | AC50 [2]: 29.1 µM [falling, single point] | AC50 [1]: 11.6 µM [falling, partial curve, poor fit]

Cc1cccc(C(=O)NCC(=O)OCC(=O)N2CCc3ccccc32)c1
cell number change: 16.3% | AC50 [2]: 0.00517 µM [falling, full curve, poor fit]

O=C(COC(=O)COc1ccc(Cl)cc1Br)NC1CCCCCC1
cell number change: 13.7% | AC50 [1]: 1.84 µM [falling, full curve, poor fit]

COC(=O)CCCC(=O)N1CCC(CCC(=O)NC2CC2)CC1
cell number change: 10.1%

O=C(NCc1ccccc1C(F)(F)F)C1CCC(=O)N(CCCc2ccccc2)C1 (stereo not drawn)
cell number change: 3.2%

CN(CC(=O)Nc1ccc(Cl)cc1)C(=O)C1=COCCO1
cell number change: 20% | AC50 [1]: 5.17 µM [falling, partial curve]

CN1CCOCCOCCN(C)C(=O)N2CCOCCOCCN(CCOCC2)C1=O
cell number change: 16.1% | AC50 [1]: 0.00517 µM [falling, full curve, poor fit]

CCc1nnc(NC(=O)CCC(=O)NCCc2ccc(OC)c(OC)c2)s1
cell number change: 33.3% | AC50 [2]: 16.4 µM [rising, single point]
